The experiment can be described thus: qHTS Assay to Find Inhibitors of Chronic Active B-Cell Receptor Signaling. The conditions noted are these: ABC-DLBCL IkBa-CBG/CBR reporter, luminescence ratio (green luciferase fused to IkBa over red control in TMD8 lymphoma cells), 4 h. An outline of the steps:
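Cell line TMD8 (human ABC DLBCL), stably expressing tet-inducible CBG68-IkBa fusion and CBR; IMDM/0.5% FBS; cpd up to 46 uM; dox induction, 4 h, 37C/5% CO2; dual luminescence; green/red ratio; MG132 control.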

Where [1] appears, read: measured here: CBR red luminescence, cell number.
[2] abbreviates: measured here: IkBa-CBG green luminescence.

Molecules are shown by their SMILES. The list shows a part of the results. The main result of the screen is listed elsewhere. These columns were measured beside it and carry no call. The list favours compounds with an active or inconclusive main result. Potencies come from curve fits of mixed quality, noted in brackets.

Regarding `CCc1ccc(NC(=O)CSc2ccc(-c3ccco3)nn2)cc1`, under setting [1], the half-maximal activity concentration (AC50) was 1.58 µM [rising, full curve, poor fit].

On to `O=C(NCCN1CCCCC1)Nc1ccc(Cl)cc1`, for which the AC50 under setting [1] is 10 µM [rising, partial curve, poor fit].

For `CNC(C)C#Cc1ccc2c(=O)c3c(OC)cccc3oc2c1` (stereo not given), the AC50 under setting [1] is 6.31 µM [rising, single point].

`CC(C)(C)N1CC(c2nc3ccccc3n2CCOc2ccccc2)CC1=O` (stereo not given): the half-maximal activity concentration (AC50) under setting [1] is 7.31 µM [rising, partial curve, poor fit].

Consider `Cc1c(C(=O)Nc2ccc(S(=O)(=O)N(C)C3CCN(C)CC3)cc2)oc2c(Cl)cccc12`, for which the AC50 under setting [1] was 29.1 µM [falling, single point].

With `Cc1ccc(-n2cc3ccc([N+](=O)[O-])cc3n2)cc1`, the AC50 under setting [1] was 0.146 µM [rising, full curve].

`Cc1cccc2c1[nH]c1nc(N/N=C\c3ccco3)nnc12`: the AC50 under setting [1] was 2.59 µM [falling, partial curve].

On to `O=C(/C(=C/O)N=Nc1ccc(Cl)cc1)c1ccncc1`, for which the concentration at half-maximal activity (AC50) under setting [1] was 4.47 µM [rising, partial curve, poor fit].

As for `c1ccc(Nc2cccc3c(Nc4ccccc4)cccc23)cc1`, the concentration at half-maximal activity (AC50) under setting [1] is 4.47 µM [rising, partial curve].

For the molecule `COc1ccc(-c2n[nH]c(C)c2-c2cc(OC)ccc2O)cc1`, the AC50 under setting [1] was 0.326 µM [falling, full curve].

For the molecule `C/C=C(/C)C(=O)Nc1cccc(C2=NOC3(C2)C[C@H](C(N)=O)N(C(=O)c2ccc(Cl)cc2)C3)c1` (stereo not given in full), the concentration at half-maximal activity (AC50) under setting [1] is 14.1 µM [falling, single point].

Regarding `CC(C)Nc1nc(NNc2nc(Cl)nc(NC(C)(C)C)n2)nc(NC(C)C)n1`, the half-maximal activity concentration (AC50) under setting [1] was 10 µM [rising, partial curve].

Turning to `NS(=O)(=O)c1cc(C(=O)N2CCNC(=O)C2)ccc1Cl`, the concentration at half-maximal activity (AC50) under setting [1] was 35.5 µM [rising, single point].

In the case of `CS(=O)(=O)N(CC(=O)Nc1cccc(Cl)c1)c1ccccc1Cl`, the AC50 under setting [1] was 20.6 µM [falling, single point].

Regarding `CNc1ccc2c3c(cccc13)C(=O)N(C)C2=O`, under setting [1], the half-maximal activity concentration (AC50) is 10 µM [falling, partial curve].

Turning to `N/C(=N\OC(=O)N1CCOCC1)c1ccc(Br)cc1`, under setting [1], the AC50 was 35.5 µM [falling, single point].

As for `C/C(=N\NC(=O)CSCc1ccc(Cl)cc1)c1ccc(NC(=O)c2ccccc2)cc1`, the half-maximal activity concentration (AC50) under setting [1] is 25.9 µM [falling, single point].

As to `Cc1cc(NS(=O)(=O)c2ccc(Nc3nc(-c4sc(NC(=O)c5ccccc5)nc4C)cs3)cc2)no1`, under setting [1], the AC50 was 8.2 µM [falling, partial curve, poor fit].

Take `NC(=S)N/N=C/c1ccccc1[N+](=O)[O-]`: the AC50 under setting [1] was 17.8 µM [rising, partial curve, poor fit].

For the molecule `CCCc1cc(=O)[nH]c(Nc2ccc(Cl)cc2)n1`, the AC50 under setting [1] was 2 µM [rising, partial curve, poor fit].

For the molecule `CCN(CC)CCNC(=O)c1c(C)oc2cc(Br)c(OC)cc12`, the concentration at half-maximal activity (AC50) under setting [1] is 35.5 µM [falling, single point].

As for `CCn1ccc(C(=O)Oc2ccc(C(C)C)cc2)n1`, the AC50 under setting [1] is 20.6 µM [rising, partial curve].

Consider `CC(C)c1ccc(NC(=O)COc2ccccc2)cc1`, for which, under setting [1], the concentration at half-maximal activity (AC50) is 2.51 µM [rising, full curve].

For `COc1ccccc1S(=O)(=O)Cc1ccc(C(=O)N2CCN(c3cccc(Cl)c3)CC2)o1`, the AC50 under setting [1] was 35.5 µM [falling, single point].

`Cc1cccc(NC(=O)C2CCN(S(=O)(=O)c3cccc4cccnc34)CC2)n1`: under setting [1], the AC50 is 11.2 µM [falling, partial curve, poor fit].

Take `CC(C)N(C(=O)[C@H]1C[C@H](CC(=O)NCCCN(C)C)C(=O)N2CCc3c([nH]c4cc(-c5ccco5)ccc34)[C@]12C)C(C)C`: under setting [2], the AC50 was 20.6 µM [falling, single point].

Turning to `Cc1cc(C)c2c(N)c(C(=O)NC3CCCC3)sc2n1`, the concentration at half-maximal activity (AC50) under setting [1] is 12.6 µM [falling, single point].

Regarding `COc1cc(C(=O)Oc2cc(N)n(S(=O)(=O)c3ccccc3)n2)cc(OC)c1OC`, the half-maximal activity concentration (AC50) under setting [1] is 22.4 µM [falling, single point].

Consider `CN(CC(=O)NCC(c1ccccc1)N1CCCC1)S(=O)(=O)c1ccc(Cl)cc1` (stereo not given), for which the AC50 under setting [1] was 23.1 µM [falling, single point].

In the case of `O=C(Nc1cccc(-c2nc3ccccc3s2)c1)c1cccs1`, the AC50 under setting [1] was 2.31 µM [falling, full curve].

As for `Cc1ccc(S(=O)(=O)N2CCN(Cc3ccccn3)CC2)cc1`, under setting [1], the concentration at half-maximal activity (AC50) was 3.16 µM [rising, partial curve, poor fit].

Regarding `Cc1nnc(NC(=O)CN2CCN(Cc3ccc(F)cc3Cl)CC2)s1`, the AC50 under setting [1] was 10 µM [rising, partial curve, poor fit].

As for `O=C(CCC(=O)Nc1nnc(C2CCCCC2)s1)NCC1CCCO1` (stereo not given), the concentration at half-maximal activity (AC50) under setting [1] was 4.11 µM [rising, partial curve].

Consider `Cc1cccc(OCC(O)Cn2c(=N)n(Cc3ccccc3)c3ccccc32)c1` (stereo not given), for which the concentration at half-maximal activity (AC50) under setting [1] is 8.91 µM [falling, partial curve, poor fit].

As for `COc1ccc(N2CCN(CC(=O)Nc3c(C)cc(C)cc3C)CC2)cc1`, under setting [1], the concentration at half-maximal activity (AC50) is 0.501 µM [rising, full curve].

On to `CCc1ccc2[nH]c(=O)c(CN(CCCN3CCOCC3)C(=O)Nc3cccc(Cl)c3)cc2c1`, for which, under setting [1], the half-maximal activity concentration (AC50) is 15.8 µM [falling, partial curve].

Take `Cc1cccc(OCc2nnc(N)s2)c1C`: under setting [1], the AC50 is 35.5 µM [falling, single point].

For the molecule `CC(C)(C)NC(=O)CSc1ncccc1-c1nc2ccccc2[nH]1`, the concentration at half-maximal activity (AC50) under setting [1] is 7.08 µM [falling, partial curve].

As to `O=C(CSc1cccc2cccnc12)Nc1ccccc1F`, the half-maximal activity concentration (AC50) under setting [1] is 15.8 µM [falling, partial curve, poor fit].

As to `Cc1ccc(COC(=O)c2nn(C)c(=O)c3ccccc23)cc1`, the AC50 under setting [1] was 2.82 µM [rising, full curve].

For the molecule `CC1=NN(c2ccc(C)c(C)c2)C(=O)/C1=C/c1ccc2c(c1)n(C)c(=O)n2C`, the half-maximal activity concentration (AC50) under setting [2] is 2.31 µM [rising, partial curve, poor fit].

Regarding `Cc1ccc(N2C(=O)N3[C@H](c4ccc(Br)cc4)[C@@H]4C(=O)N(C(C)(C)C)C(=O)[C@@H]4[C@]3(C)C2=O)cc1`, the AC50 under setting [1] was 35.5 µM [falling, single point].

Turning to `COc1ccccc1-c1nc(N)n[nH]1`, the half-maximal activity concentration (AC50) under setting [1] was 4.47 µM [falling, partial curve].

Take `O=C(CN1CCOCC1)N/N=C/C(Br)=C\c1ccccc1`: the AC50 under setting [1] was 15.8 µM [rising, single point].

Take `CCOC(=O)N1CCN(Cc2c(O)ccc3ccccc23)CC1`: the AC50 under setting [1] is 35.5 µM [falling, single point].

As to `O=C(C1CCN(S(=O)(=O)c2cccnc2)CC1)N1CCCCC1`, the AC50 under setting [1] is 13 µM [rising, partial curve, poor fit].

As to `O=C(COc1ccc(Br)cc1)Nc1ccc(N2CCOCC2)cc1N1CCOCC1`, under setting [1], the concentration at half-maximal activity (AC50) was 3.26 µM [rising, partial curve, poor fit].

On to `O=C(O)c1ccccc1NS(=O)(=O)c1ccccc1C(F)(F)F`, for which, under setting [1], the AC50 is 0.0651 µM [falling, full curve, poor fit].

Take `COc1ccc(CNC(=O)Cn2nc([N+](=O)[O-])c(Br)c2C)cc1OC`: under setting [1], the AC50 was 3.98 µM [rising, full curve, poor fit].

Regarding `Cc1c(Cl)c(C(=O)NNC(=S)Nc2ccc(F)cc2)nn1C`, the AC50 under setting [1] was 12.6 µM [falling, partial curve, poor fit].

In the case of `CC(C)Sc1cc(N2CCCC2)nc(-c2ccc(F)cc2)n1`, the half-maximal activity concentration (AC50) under setting [1] was 35.5 µM [falling, single point].

Turning to `O=C(c1ccccc1)N1N=C(C(F)(F)F)CC1(O)c1ccc(F)cc1` (stereo not given), under setting [1], the AC50 is 11.2 µM [falling, partial curve].

On to `CN(C)C(=O)OCC1COc2ccccc2O1` (stereo not given), for which, under setting [1], the AC50 was 35.5 µM [rising, single point].

For `C=CCN1C(=O)c2cccc3c(Br)ccc(c23)C1=O`, under setting [1], the AC50 is 2.51 µM [falling, partial curve, poor fit].

Consider `Cc1occc1-c1nc(-c2ccncc2)no1`, for which the AC50 under setting [1] is 2.06 µM [rising, full curve, poor fit].

On to `Cc1c(NC(=O)c2cc(-n3cnnc3)ccc2Cl)cccc1-c1nc2ccccc2o1`, for which the AC50 under setting [1] was 1.3 µM [falling, full curve].

For the molecule `CCOc1cc(CNc2ccc3c(c2)OCCO3)cc(Br)c1OCC(N)=O`, the half-maximal activity concentration (AC50) under setting [1] was 35.5 µM [falling, single point].

Turning to `COc1ccc(COc2cc(-c3cccc(OC)c3)nc3ccc(NC(=O)c4ccc(C)cc4)cc23)cc1`, the AC50 runs as follows: under setting [1], 23.1 µM [rising, partial curve, poor fit]; under setting [2], 18.4 µM [falling, single point].

As to `COc1cc(/C(C)=C/c2ccccc2)c2c(c1)oc1ccccc12`, the AC50 under setting [1] is 5.62 µM [rising, partial curve, poor fit].

As for `COc1ccc(-c2nnc(SCC(=O)NCCc3ccccc3)o2)cc1`, the half-maximal activity concentration (AC50) under setting [1] was 4.11 µM [rising, full curve, poor fit].

Take `CCCCOC(=O)Nc1ccc(S(=O)(=O)Nc2onc(C)c2C)cc1`: the concentration at half-maximal activity (AC50) under setting [1] is 1.26 µM [rising, partial curve, poor fit].

As to `NC(=O)c1ccsc1NC(=O)CCS(=O)(=O)c1ccc(F)cc1`, the concentration at half-maximal activity (AC50) under setting [1] is 14.6 µM [falling, partial curve, poor fit].

As for `Cc1c(Br)c([N+](=O)[O-])nn1CC(=O)N1CCCc2ccccc21`, under setting [1], the AC50 is 16.4 µM [rising, partial curve, poor fit].

Regarding `CCOc1cc(O)c(-c2[nH]ncc2-c2nc(C)cs2)cc1CC`, under setting [1], the AC50 is 35.5 µM [falling, single point].

Values taken from PubChem BioAssay AID493014 (National Center for Advancing Translational Sciences (NCATS), 2011).
